Measured data: PubChem BioAssay AID686943 (Drosophila RNAi Screening Center, 2013)
Test: 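Search across the genome for regulators of signalling from receptor tyrosine kinase to ERK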 (primary screen). System: Drosophila S2R+ haemocyte-like cells expressing YFP-tagged ERK (Rolled). Reagents: long dsRNA against Drosophila genes. Treatment: insulin stimulation versus unstimulated cells; dose and duration not given. Measured: 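Antibody staining for doubly phosphorylated ERK divided by ERK-YFP signal, as plate z-scores, in insulin-treated and untreated cells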. Scale: replicate 1, z-score of dpERK with insulin and replicate 2, z-score of dpERK with insulin: higher = more active ERK per ERK-YFP after insulin; replicate 1, z-score of dpERK under basal conditions: higher = more basal active ERK per ERK-YFP.
In all, the deposit lists about 23,000 reagents; this is an unselected part of those that have a named target and a result. 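Extra replicates exist only for a retested subset of genes; insulin dose and duration not given; both raised and lowered dpERK matter.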 The numbers tell different reagents against one gene apart. A plus sign joins genes that one reagent is predicted to hit. Not all columns of the deposit are shown. The record does not give: the amount of reagent, the time to read-out.

gene knocked down,dsRNA no.,"replicate 1, z-score of dpERK with insulin","replicate 2, z-score of dpERK with insulin","replicate 1, z-score of dpERK under basal conditions"
lncRNA:mimi (GeneID 12798523),1,0.87,-0.28,-0.44
Ubc10 (GeneID 37035),1,-1.03,0.51,-2.4
CG11703 (GeneID 42307),1,0.62,0.31,-0.75
CG34163 (GeneID 5740407),1,-0.39,-0.53,0.66
CG11382 (GeneID 31069),1,0.51,0,-0.14
Diap1 (GeneID 39753),1,-8.62,-3.82,0.49
CG2701 (GeneID 31261),1,-0.12,-0.02,0.18
Rcd4 (GeneID 34158),1,0.44,0.21,-0.11
CG8785 (GeneID 36391),1,-0.03,0.25,-0.26
GluRS-m (GeneID 39828),1,0.75,-1.15,0.64
CG11068 (GeneID 32357),1,-0.35,-0.44,0.14
CG33278 (GeneID 2768946),1,-0.26,0.38,-0.3
CG9632 (GeneID 41926),1,0.22,0.24,0.25
CG30466 (GeneID 246629),1,0.37,-0.18,1.49
SdhCL (GeneID 41324),1,1.06,0.22,-0.54
CG2528 (GeneID 35435),1,0.19,0.61,-0.36
CG31835 + CG42585,1,-0.82,-0.84,1.38
Rpt4R (GeneID 39351),1,-0.03,0.41,-0.3
CG32440 (GeneID 318030),1,-0.46,-0.79,-0.29
AMPKalpha (GeneID 43904),1,-0.21,-0.61,0.61
Shrm (GeneID 36592),1,-1.7,-0.1,-0.55
Shrm (GeneID 36592),2,-0.09,-0.64,0.15
Shrm (GeneID 36592),3,0.39,0.07,0.56
phtf (GeneID 35583),1,0.46,0.09,1.69
Rrp40 (GeneID 319033),1,0.35,-0.81,0.67
Spn42Dd (GeneID 49808),1,0.95,1.27,2.93
Spn42Dd (GeneID 49808),2,0.6,0.78,0.97
CG4520 (GeneID 41902),1,-0.17,-1.59,0.06
Tre1 (GeneID 140439),1,-0.8,0.36,-0.32
Cpr47Ef (GeneID 36194),1,0.22,-0.38,0.1
Cpr47Ef (GeneID 36194),2,-0.34,0.11,0.68
stum (GeneID 37473),1,-0.44,0.09,1
stum (GeneID 37473),2,0.27,-0.08,0.57
CLIP-190 (GeneID 35042),1,1.28,-0.18,1.12
Kaz (GeneID 326135),1,-1.18,-0.5,0.07
CG43896 (GeneID 39360),1,0.34,-0.11,-0.45
CG43896 (GeneID 39360),2,0.92,0.17,0.9
CG10912 (GeneID 37059),1,0.04,0.25,1.15
CG4757 (GeneID 41330),1,-0.46,0.44,-0.02
Etfb (GeneID 43515),1,-0.64,0.07,-0.58
Rh3 (GeneID 42398),1,0.24,-0.12,-0.06
Brca2 (GeneID 37916),1,-0.45,-0.46,1
Brca2 (GeneID 37916),2,0.75,0.51,-0.2
ghi (GeneID 317833),1,0.75,2.05,2.99
RpS5b (GeneID 41807),1,0.42,0.65,-1.88
PyK (GeneID 42620),1,-0.3,-0.38,0.54
stol (GeneID 34921),1,0.23,1.06,1.07
CG11584 (GeneID 32363),1,0.84,0.71,0.84
CG9875 (GeneID 37698),1,0.04,-0.52,1.42
CG34225 (GeneID 5740807),1,-0.16,0.16,0.48
CG9503 (GeneID 32424),1,0.8,0.45,0.26
CG9503 (GeneID 32424),2,0.27,-0.38,0.69
l(2)05714 (GeneID 46066),1,0.77,1.01,0.89
lush (GeneID 40136),1,-1.18,0.51,-0.49
CG15035 (GeneID 31673),1,-0.29,0.91,0.43
Or33a (GeneID 34601),1,0.33,0.15,0.93
Act88F (GeneID 41885),1,4.15,-3.62,-1.08
CG14384 (GeneID 41588),1,-0.5,-1.59,-0.6
CG15286 (GeneID 34834),1,0.15,0.02,-0.17
Sply (GeneID 46059),1,-0.09,0.25,1.36
CG32026 (GeneID 317829),1,-0.04,-0.02,-0.22
plh (GeneID 40615),1,1.06,0.9,0.44
CG7231 (GeneID 34086),1,-0.02,0.78,0.56
CG6067 (GeneID 31529),1,0.09,0.02,0.24
CR11235 (GeneID 10178883),1,-0.15,0.02,0.36
CG11570 (GeneID 39357),1,1.13,0.63,1.19
CG9698 (GeneID 43629),1,-0.09,0.21,0.1
Muc4B (GeneID 31368),1,-0.09,0.43,-0.44
Muc4B (GeneID 31368),2,-2.12,-1.55,0.34
CG11700 (GeneID 31564),1,0,-0.76,-2.5
CG33263 (GeneID 2768952),1,-0.45,0.34,-2.05
Der-2 (GeneID 42005),1,-0.03,0.25,-1.18
Ance-3 (GeneID 34808),1,0.36,0.2,0.96
Ance-3 (GeneID 34808),2,-0.27,-0.07,-1.56

Sorted by “replicate 2, z-score of dpERK with insulin” (ascending): 10 of the entries above.
gene knocked down,dsRNA no.,"replicate 1, z-score of dpERK with insulin","replicate 2, z-score of dpERK with insulin","replicate 1, z-score of dpERK under basal conditions"
CG4520 (GeneID 41902),1,-0.17,-1.59,0.06
Rrp40 (GeneID 319033),1,0.35,-0.81,0.67
Cpr47Ef (GeneID 36194),1,0.22,-0.38,0.1
stum (GeneID 37473),2,0.27,-0.08,0.57
phtf (GeneID 35583),1,0.46,0.09,1.69
stum (GeneID 37473),1,-0.44,0.09,1
Cpr47Ef (GeneID 36194),2,-0.34,0.11,0.68
Tre1 (GeneID 140439),1,-0.8,0.36,-0.32
Spn42Dd (GeneID 49808),2,0.6,0.78,0.97
Spn42Dd (GeneID 49808),1,0.95,1.27,2.93
